Assay results from article PMC3870252, “The N-Terminal Membrane-Spanning Domain of the Escherichia coli DNA Translocase FtsK Hexamerizes at Midcell” (mBio, 2013).
These are yes or no findings as the source states them, for the method shown. Where a sequence is shown, tags or fusion partners need not be part of it.

Target: FtsK-YPet (wild-type E. coli FtsK with a C-terminal YPet fusion) (E. coli) (UniProt P46889)
Experiment: condition: only molecules outside the cell center (before recruitment to midcell); quantitative live-cell fluorescence stoichiometry (widefield microscopy); live E. coli; intensities of FtsK-YPet spots outside the cell center in unbleached images

- binding: no binding
B1: FtsK-YPet (wild-type E. coli FtsK with a C-terminal YPet fusion) (natural protein, UniProt P46889 1-1329, looked up)
chain: MSQEYIEDKEVTLTKLSSGRRLLEALLILIVLFAVWLMAALLSFNPSDPSWSQTAWHEPIHNLGGMPGAWLADTLFFIFGVMAYTIPVIIVGGCWFAWRHQSSDEYIDYFAVSLRIIGVLALILTSCGLAAINADDIWYFASGGVIGSLLSTTLQPLLHSSGGTIALLCVWAAGLTLFTGWSWVTIAEKLGGWILNILTFASNRTRRDDTWVDEDEYEDDEEYEDENHGKQHESRRARILRGALARRKRLAEKFINPMGRQTDAALFSGKRMDDDEEITYTARGVAADPDDVLFSGNRATQPEYDEYDPLLNGAPITEPVAVAAAATTATQSWAAPVEPVTQTPPVASVDVPPAQPTVAWQPVPGPQTGEPVIAPAPEGYPQQSQYAQPAVQYNEPLQQPVQPQQPYYAPAAEQPAQQPYYAPAPEQPVAGNAWQAEEQQSTFAPQSTYQTEQTYQQPAAQEPLYQQPQPVEQQPVVEPEPVVEETKPARPPLYYFEEVEEKRAREREQLAAWYQPIPEPVKEPEPIKSSLKAPSVAAVPPVEAAAAVSPLASGVKKATLATGAAATVAAPVFSLANSGGPRPQVKEGIGPQLPRPKRIRVPTRRELASYGIKLPSQRAAEEKAREAQRNQYDSGDQYNDDEIDAMQQDELARQFAQTQQQRYGEQYQHDVPVNAEDADAAAEAELARQFAQTQQQRYSGEQPAGANPFSLDDFEFSPMKALLDDGPHEPLFTPIVEPVQQPQQPVAPQQQYQQPQQPVPPQPQYQQPQQPVAPQPQYQQPQQPVAPQQQYQQPQQPVAPQQQYQQPQQPVAPQPQDTLLHPLLMRNGDSRPLHKPTTPLPSLDLLTPPPSEVEPVDTFALEQMARLVEARLADFRIKADVVNYSPGPVITRFELNLAPGVKAARISNLSRDLARSLSTVAVRVVEVIPGKPYVGLELPNKKRQTVYLREVLDNAKFRDNPSPLTVVLGKDIAGEPVVADLAKMPHLLVAGTTGSGKSVGVNAMILSMLYKAQPEDVRFIMIDPKMLELSVYEGIPHLLTEVVTDMKDAANALRWCVNEMERRYKLMSALGVRNLAGYNEKIAEADRMMRPIPDPYWKPGDSMDAQHPVLKKEPYIVVLVDEFADLMMTVGKKVEELIARLAQKARAAGIHLVLATQRPSVDVITGLIKANIPTRIAFTVSSKIDSRTILDQAGAESLLGMGDMLYSGPNSTLPVRVHGAFVRDQEVHAVVQDWKARGRPQYVDGITSDSESEGGAGGFDGAEELDPLFDQAVQFVTEKRKASISGVQRQFRIGYNRAARIIEQMEAQGIVSEQGHNGNREVLAPPPFD
notes: FtsK, DNA translocase, Escherichia coli; wild-type protein, 1,329 amino acids, integral membrane protein; also called wild-type FtsK; source: expressed from the endogenous wild-type chromosomal locus, E. coli K-12 AB1157 derivative, in live cells; not shown: YPet, C-terminal, kept
